# Test results published in the supplement of paper PMC9135407.
# Several values for one entry are separate records, joined by “and”; a condition that tells them apart may be missing. Equal entries are not always repeated. Structures can show the parent of a compound that is named as a salt. ± gives the standard deviation of the averaged measurements. The list shows a part of the results. Plates or batches differ in their baseline, so values are only roughly comparable.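 Assay uses culture-activated primary human stellate myofibroblasts; lipid droplet recovery indicates inactivation. Measured: proportion of Hoechst-counted cells over a plate-specific Bodipy cutoff, duplicate wells, DMSO and nortriptyline as per-plate negative and positive controls. A hit scores, control-normalized, above the plate's top-tenth-percentile nortriptyline wells or ranks among its three best wells. Final well concentrations not reported.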
# System: primary human hepatic stellate cells (donor 1)
# Experiment: percent Bodipy-positive cells; higher = more lipid droplet accumulation
# Details: 48 h
# [1] = library stock concentration: 10 mM
# [2] = library stock concentration: 3.33 mM
# [3] = library stock concentration: 1 mM
compound,measurement,setting,value
CN1CC[C@]23CCCC[C@H]2[C@H]1Cc1ccc(O)cc13,percent Bodipy-positive cells,library stock concentration: 9.9 mM,16.1 ± 3.4%
CCCCc1ccc(C(=O)O)nc1 [Fusaric acid],percent Bodipy-positive cells,,30.9 ± 2.1%
same,percent Bodipy-positive cells,[1],38.2 ± 7.5%
CCCN1C[C@H](CSC)C[C@@H]2c3cccc4[nH]cc(c34)C[C@H]21 [Pergolide methanesulfonate],percent Bodipy-positive cells,[1],36.1 ± 5%
CCCN1C[C@H](CSC)C[C@@H]2c3cccc4[nH]cc(c34)C[C@H]21,percent Bodipy-positive cells,[1],49.7 ± 1.5%
CCCN1C[C@H](CSC)C[C@@H]2c3cccc4[nH]cc(c34)C[C@H]21 [Pergolide mesylate],percent Bodipy-positive cells,,51.1 ± 16%
same,percent Bodipy-positive cells,[2],17.7 ± 6.9%
same,percent Bodipy-positive cells,library stock concentration: 4.9 mM,35.8 ± 1.5%
same,percent Bodipy-positive cells,library stock concentration: 6.4 mM,28.9 ± 1.2%
same,percent Bodipy-positive cells,[1],66.2% and 61.3%
CC(=O)Nc1ccc(Cc2ccc(NC(C)=O)cc2)cc1,percent Bodipy-positive cells,[2],39.6 ± 6.1%
same,percent Bodipy-positive cells,[1],44.4 ± 2.2%
C=C(C)[C@@H]1[C@H]2OC(=O)[C@@H]1[C@]1(O)C[C@H]3O[C@]34C(=O)O[C@H]2[C@]14C.CC(C)(O)[C@@H]1[C@H]2OC(=O)[C@@H]1[C@]1(O)C[C@H]3O[C@]34C(=O)O[C@H]2[C@]14C [Picrotin - Picrotoxinin],percent Bodipy-positive cells,[1],8.93 ± 0.99%
N.N.[Cl][Pt][Cl] [Cisplatin],percent Bodipy-positive cells,[2],8.43 ± 5.2%
same,percent Bodipy-positive cells,library stock concentration: 6.7 mM,23.1 ± 7.2%
COc1cc(-n2c(=S)[nH]c3ccccc3c2=O)c(Cl)cc1Cl [Mdivi-1],percent Bodipy-positive cells,[2],27 ± 2.3%
same,percent Bodipy-positive cells,[1],23.18 ± 0.18%
C[N+](C)(C)CC#CCOC(=O)Nc1cccc(Cl)c1,percent Bodipy-positive cells,[1],32.5 ± 8.8%
c1cc2ccc(N3CCNCC3)cc2cn1 [7-piperazin-1-yl-Isoquinoline (hydrochloride)],percent Bodipy-positive cells,[3],17.4 ± 13%
CC[C@@H](C)C(=O)O[C@H]1[C@H](O)[C@H]2[C@@H](CN3C[C@@H](C)CC[C@H]3[C@@]2(C)O)[C@@H]2C[C@]34O[C@]5(O)[C@@H](OC(=O)[C@](C)(O)[C@@H](C)O)CC[C@@]3(C)[C@@H]5[C@@H](OC(C)=O)[C@@H](OC(C)=O)[C@H]4[C@@]21O (stereo in doubt) [Protoveratrine b],percent Bodipy-positive cells,[1],45.4 ± 30%
c1cc(Cc2cnc[nH]2)ccn1 [Immethridine dihydrobromide],percent Bodipy-positive cells,[1],7.53 ± 0.19%
Oc1cccc2cccnc12 [Oxyquinoline hemisulfate],percent Bodipy-positive cells,[1],15.9 ± 3.4%
CC(C)(O)C(Cl)(Cl)Cl,percent Bodipy-positive cells,[1],35.8 ± 8.1%
COc1ccc(CCN)cc1OC [Homoveratrylamine],percent Bodipy-positive cells,[1],5.68 ± 0.47%
CC1=C(O)C(=O)C=C2C1=CC=C1[C@@]2(C)CC[C@@]2(C)[C@@H]3C[C@](C)(C(=O)O)CC[C@]3(C)CC[C@]12C [Celastrol],percent Bodipy-positive cells,library stock concentration: 80 uM,19.9 ± 4.7%
same,percent Bodipy-positive cells,library stock concentration: 400 uM,21.7 ± 1.2%
same,percent Bodipy-positive cells,[1],100%
Cc1ncc(CNC(=O)N(CCCl)N=O)c(N)n1 [Nimustine],percent Bodipy-positive cells,[1],32.5 ± 17%
Cc1ncc(CNC(=O)N(CCCl)N=O)c(N)n1 [Nimustine hydrochloride],percent Bodipy-positive cells,[1],25.5 ± 3%
CCCC(=O)N[C@H]1CCOC1=O [N-butyryl-L-Homoserine lactone],percent Bodipy-positive cells,[3],14 ± 2.2%
C[C@H]1CCC/C=C/[C@@H]2C[C@H](O)C[C@H]2[C@H](O)/C=C/C(=O)O1 [Brefeldin A],percent Bodipy-positive cells,[2],62.5 ± 13%
same,percent Bodipy-positive cells,[1],59.8% and 45.5%
same,percent Bodipy-positive cells,library stock concentration: 17.8 mM,75.6 ± 1.4%
COc1ccc(/C=C\c2cc(OC)cc(OC)c2)cc1 [cis-trismethoxy Resveratrol],percent Bodipy-positive cells,[3],38.7 ± 9.3%
CNc1ccc(C(=O)CC(O)CCC(C)C2OC(=O)CC(O)CC(=O)CC(O)CC(O)CC(O)CC(O)CC3(O)CC(O)C(C(=O)OC)C(CC(O[C@@H]4O[C@H](C)[C@@H](O)[C@H](N)[C@@H]4O)/C=C/C=C/C=C/C=C/C=C/C=C/C=C/C2C)O3)cc1.COC(=O)C1C(O)CC2(O)CC(O)CC(O)CC(O)CC(O)CC(=O)CC(O)CC(=O)OC(C(C)CCC(O)CC(=O)c3ccc(N)cc3)C(C)/C=C/C=C/C=C/C=C/C=C/C=C/C=C/C(O[C@@H]3O[C@H](C)[C@@H](O)[C@H](N)[C@@H]3O)CC1O2 (some centres not stated) [Mepartricin],percent Bodipy-positive cells,[1],28.7 ± 7.8%
COc1ccc2[nH]cc(CCN)c2c1 [5-Methoxytryptamine],percent Bodipy-positive cells,[1],5.8 ± 0.55%
COc1ccc2[nH]cc(CCN)c2c1 [O-Methylserotonin hydrochloride],percent Bodipy-positive cells,[1],40.2 ± 12%
"C[N+]1(C)CCc2cc3c(cc2C1C1OC(=O)c2c1ccc1c2OCO1)OCO3 (single isomer, unassigned; (-)) [(-)-Bicuculline methobromide]",percent Bodipy-positive cells,[1],12.1 ± 6%
CC(=O)N[C@H]1[C@@H](O[C@@H]2O[C@H](CC(O)[C@H]3O[C@@H](n4ccc(=O)[nH]c4=O)[C@H](O)[C@@H]3O)[C@H](O)[C@H](O)[C@H]2NC(=O)/C=C/CC(C)C)O[C@H](CO)[C@@H](N)[C@@H]1O (some centres not stated) [Tunicamycin],percent Bodipy-positive cells,library stock concentration: 7 mM,21.9 ± 2.6%
CC[C@H](C)[C@H]1O[C@]2(C=C[C@@H]1C)C[C@@H]1C[C@@H](C/C=C(\C)[C@@H](O[C@H]3C[C@H](OC)[C@@H](O[C@H]4C[C@H](OC)[C@@H](O)[C@H](C)O4)[C@H](C)O3)[C@@H](C)/C=C/C=C3\CO[C@@H]4[C@H](O)C(C)=C[C@@H](C(=O)O1)[C@]34O)O2.CO[C@H]1C[C@H](O[C@H]2[C@H](C)O[C@@H](O[C@@H]3/C(C)=C/C[C@@H]4C[C@@H](C[C@]5(C=C[C@H](C)[C@@H](C(C)C)O5)O4)OC(=O)[C@@H]4C=C(C)[C@@H](O)[C@H]5OC/C(=C\C=C\[C@@H]3C)[C@]54O)C[C@@H]2OC)O[C@@H](C)[C@@H]1O [Abamectin],percent Bodipy-positive cells,library stock concentration: 2.3 mM,5.62% and 30%
CC[C@H](C)[C@H]1O[C@]2(C=C[C@@H]1C)C[C@@H]1C[C@@H](C/C=C(\C)[C@@H](O[C@H]3C[C@H](OC)[C@@H](O[C@H]4C[C@H](OC)[C@@H](O)[C@H](C)O4)[C@H](C)O3)[C@@H](C)/C=C/C=C3\CO[C@@H]4[C@H](O)C(C)=C[C@@H](C(=O)O1)[C@]34O)O2.CO[C@H]1C[C@H](O[C@H]2[C@H](C)O[C@@H](O[C@@H]3/C(C)=C/C[C@@H]4C[C@@H](C[C@]5(C=C[C@H](C)[C@@H](C(C)C)O5)O4)OC(=O)[C@@H]4C=C(C)[C@@H](O)[C@H]5OC/C(=C\C=C\[C@@H]3C)[C@]54O)C[C@@H]2OC)O[C@@H](C)[C@@H]1O [Avermectin b1],percent Bodipy-positive cells,[1],16.6 ± 2%
CC[C@H](C)[C@H]1O[C@]2(C=C[C@@H]1C)C[C@@H]1C[C@@H](C/C=C(\C)[C@@H](O[C@H]3C[C@H](OC)[C@@H](O[C@H]4C[C@H](OC)[C@@H](O)[C@H](C)O4)[C@H](C)O3)[C@@H](C)/C=C/C=C3\CO[C@@H]4[C@H](O)C(C)=C[C@@H](C(=O)O1)[C@]34O)O2.CO[C@H]1C[C@H](O[C@H]2[C@H](C)O[C@@H](O[C@@H]3/C(C)=C/C[C@@H]4C[C@@H](C[C@]5(C=C[C@H](C)[C@@H](C(C)C)O5)O4)OC(=O)[C@@H]4C=C(C)[C@@H](O)[C@H]5OC/C(=C\C=C\[C@@H]3C)[C@]54O)C[C@@H]2OC)O[C@@H](C)[C@@H]1O [Avermectin B1],percent Bodipy-positive cells,,8.74 ± 0.65%

# 2 entries drawn at random from the list so far, as already listed:
compound,measurement,setting,value
CCCN1C[C@H](CSC)C[C@@H]2c3cccc4[nH]cc(c34)C[C@H]21 [Pergolide mesylate],percent Bodipy-positive cells,[1],66.2% and 61.3%
CCCN1C[C@H](CSC)C[C@@H]2c3cccc4[nH]cc(c34)C[C@H]21 [Pergolide methanesulfonate],percent Bodipy-positive cells,[1],36.1 ± 5%

# A run of entries from the list above, as a working copy:
compound,measurement,setting,value
CCCN1C[C@H](CSC)C[C@@H]2c3cccc4[nH]cc(c34)C[C@H]21,percent Bodipy-positive cells,[1],49.7 ± 1.5%
CCCN1C[C@H](CSC)C[C@@H]2c3cccc4[nH]cc(c34)C[C@H]21 [Pergolide mesylate],percent Bodipy-positive cells,,51.1 ± 16%
